The supplement of paper PMC11732987, “Enantioselective OTUD7B fragment discovery through chemoproteomics screening and high-throughput optimisation” (Communications Chemistry, 2025)
The other results are listed elsewhere or left out. The data scatter; read single values as rough.

The targets below were run with ClCC(=O)N[C@H]1CCCc2ccccc12 (assay: log2 mean competition ratio of IA-DTB cysteine labelling (DMSO/compound) (log2 ratio); higher = stronger cysteine engagement by compound). Settings: 50 µM; treatment time: 4 h; cell line lysate: HEK293T.
Protocol: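 IA-DTB competitive cysteine chemoproteomics in HEK293T RIPA lysate. Lysates were treated with compound 29 or 30 at 50 or 200 µM for 4 h, then IA-DTB (500 µM, 1 h), trypsin-digested, NeutrAvidin-enriched and analysed by diaPASEF. Competition ratio = intensity DMSO / intensity compound (n=4 treated, n=64 DMSO); binding: mean log2 CR ≥ 1 and p ≤ 0.05 plus QC filters. Target is the cysteine site.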
RFC1 C118 (UniProt P35251) was tested, and the “log2 mean competition ratio” value was 0.108. In the case of RASA3 C328 (UniProt Q14644), the “log2 mean competition ratio” value is reported as -0.404. In the case of RBM26 C294 (UniProt Q5T8P6), the “log2 mean competition ratio” value is reported as 0.0561. RIPK2 C414 (UniProt O43353) was tested, and the “log2 mean competition ratio” value was 0.505. For RBM45 C90 (UniProt Q8IUH3), the “log2 mean competition ratio” value was -0.444. RALGAPA2 C1662 (UniProt Q2PPJ7) was tested, and the “log2 mean competition ratio” value was -0.14. In the case of RFWD3 C379 (UniProt Q6PCD5), the “log2 mean competition ratio” value is reported as -0.024. For RFK C8 (UniProt Q969G6), the “log2 mean competition ratio” value was 0.207. With RBL2 C368 (UniProt Q08999) the “log2 mean competition ratio” value was -0.3. In the case of RASA2 C436 (UniProt Q15283), the “log2 mean competition ratio” value is reported as 0.231. For REXO1 C389 (UniProt Q8N1G1), the “log2 mean competition ratio” value was 0.174. In the case of RHOQ C144 (UniProt P17081), the “log2 mean competition ratio” value is reported as -0.239. With RBFA C315 (UniProt Q8N0V3) the “log2 mean competition ratio” value was -0.165. With RALGAPA1 C1712 (UniProt Q6GYQ0) the “log2 mean competition ratio” value was 0.748. For RBM4 C31 (UniProt Q9BWF3), the “log2 mean competition ratio” value was 0.923. With RANBP9 C594 (UniProt Q96S59) the “log2 mean competition ratio” value was 0.182. RBM33 C285 (UniProt Q96EV2) was tested, and the “log2 mean competition ratio” value was 0.188. For RBM48 C258 (UniProt Q5RL73), the “log2 mean competition ratio” value was -0.0639. For RASSF7 C122 (UniProt Q02833), the “log2 mean competition ratio” value was 0.0367. In the case of RMI1 C268 (UniProt Q9H9A7), the “log2 mean competition ratio” value is reported as 0.505.

Same assay, conditions: 200 µM; treatment time: 4 h; cell line lysate: HEK293T
RFC1 C118 (UniProt P35251) was tested, and the “log2 mean competition ratio” value was 0.268. For RASA3 C328 (UniProt Q14644), the “log2 mean competition ratio” value was 0.0298. For RBM26 C294 (UniProt Q5T8P6), the “log2 mean competition ratio” value was -0.303. RIPK2 C414 (UniProt O43353) was tested, and the “log2 mean competition ratio” value was 0.228. For RBM45 C90 (UniProt Q8IUH3), the “log2 mean competition ratio” value was -0.0856. In the case of RALGAPA2 C1662 (UniProt Q2PPJ7), the “log2 mean competition ratio” value is reported as -0.00454. With RFWD3 C379 (UniProt Q6PCD5) the “log2 mean competition ratio” value was 0.416. For RFK C8 (UniProt Q969G6), the “log2 mean competition ratio” value was -0.195. RBL2 C368 (UniProt Q08999) was tested, and the “log2 mean competition ratio” value was -0.175. With RASA2 C436 (UniProt Q15283) the “log2 mean competition ratio” value was -0.128. In the case of REXO1 C389 (UniProt Q8N1G1), the “log2 mean competition ratio” value is reported as -0.0267. For RHOQ C144 (UniProt P17081), the “log2 mean competition ratio” value was -0.00572. RBFA C315 (UniProt Q8N0V3) was tested, and the “log2 mean competition ratio” value was 0.143. With RALGAPA1 C1712 (UniProt Q6GYQ0) the “log2 mean competition ratio” value was -0.369. RBM4 C31 (UniProt Q9BWF3) was tested, and the “log2 mean competition ratio” value was 0.033. In the case of RANBP9 C594 (UniProt Q96S59), the “log2 mean competition ratio” value is reported as 0.256. RBM33 C285 (UniProt Q96EV2) was tested, and the “log2 mean competition ratio” value was -0.509. With RBM48 C258 (UniProt Q5RL73) the “log2 mean competition ratio” value was 0.118. For RASSF7 C122 (UniProt Q02833), the “log2 mean competition ratio” value was 0.0933. With RMI1 C268 (UniProt Q9H9A7) the “log2 mean competition ratio” value was -0.0764.
